Source: the supplement of paper PMC10032668
The list shows a part of the results. The list holds hits alone, and they repeat only in part.

Amino acid sequences for entries named in this document (tags omitted).
HIST1H1E, P10412, UniProt P10412, whole entry: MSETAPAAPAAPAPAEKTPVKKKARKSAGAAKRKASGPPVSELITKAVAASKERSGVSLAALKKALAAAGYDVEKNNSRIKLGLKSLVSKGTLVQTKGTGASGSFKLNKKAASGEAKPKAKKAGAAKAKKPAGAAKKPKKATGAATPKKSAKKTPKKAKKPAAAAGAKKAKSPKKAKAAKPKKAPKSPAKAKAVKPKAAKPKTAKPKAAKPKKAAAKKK
VAPB, O95292, UniProt O95292, whole entry: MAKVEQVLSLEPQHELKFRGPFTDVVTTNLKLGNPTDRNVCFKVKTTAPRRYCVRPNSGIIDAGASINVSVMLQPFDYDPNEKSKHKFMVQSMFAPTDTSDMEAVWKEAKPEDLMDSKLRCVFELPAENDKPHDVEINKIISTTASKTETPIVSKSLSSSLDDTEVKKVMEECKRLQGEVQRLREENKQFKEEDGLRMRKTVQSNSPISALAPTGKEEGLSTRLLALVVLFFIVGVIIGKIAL
ANXA11, P50995, UniProt P50995, whole entry: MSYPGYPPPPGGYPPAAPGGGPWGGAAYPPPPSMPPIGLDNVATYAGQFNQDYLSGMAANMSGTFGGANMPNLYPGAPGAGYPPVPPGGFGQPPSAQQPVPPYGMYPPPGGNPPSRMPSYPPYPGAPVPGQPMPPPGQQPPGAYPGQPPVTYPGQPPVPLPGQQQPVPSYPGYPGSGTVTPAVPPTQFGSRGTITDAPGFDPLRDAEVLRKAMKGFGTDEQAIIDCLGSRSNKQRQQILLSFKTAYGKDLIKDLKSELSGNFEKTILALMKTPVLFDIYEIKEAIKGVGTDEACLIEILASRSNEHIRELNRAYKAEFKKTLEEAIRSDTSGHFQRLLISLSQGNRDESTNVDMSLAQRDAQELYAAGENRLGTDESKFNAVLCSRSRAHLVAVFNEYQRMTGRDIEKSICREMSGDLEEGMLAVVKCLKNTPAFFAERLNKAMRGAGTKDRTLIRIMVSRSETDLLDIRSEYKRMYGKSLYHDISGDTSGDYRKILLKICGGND
FLNA, P21333, UniProt P21333, whole entry: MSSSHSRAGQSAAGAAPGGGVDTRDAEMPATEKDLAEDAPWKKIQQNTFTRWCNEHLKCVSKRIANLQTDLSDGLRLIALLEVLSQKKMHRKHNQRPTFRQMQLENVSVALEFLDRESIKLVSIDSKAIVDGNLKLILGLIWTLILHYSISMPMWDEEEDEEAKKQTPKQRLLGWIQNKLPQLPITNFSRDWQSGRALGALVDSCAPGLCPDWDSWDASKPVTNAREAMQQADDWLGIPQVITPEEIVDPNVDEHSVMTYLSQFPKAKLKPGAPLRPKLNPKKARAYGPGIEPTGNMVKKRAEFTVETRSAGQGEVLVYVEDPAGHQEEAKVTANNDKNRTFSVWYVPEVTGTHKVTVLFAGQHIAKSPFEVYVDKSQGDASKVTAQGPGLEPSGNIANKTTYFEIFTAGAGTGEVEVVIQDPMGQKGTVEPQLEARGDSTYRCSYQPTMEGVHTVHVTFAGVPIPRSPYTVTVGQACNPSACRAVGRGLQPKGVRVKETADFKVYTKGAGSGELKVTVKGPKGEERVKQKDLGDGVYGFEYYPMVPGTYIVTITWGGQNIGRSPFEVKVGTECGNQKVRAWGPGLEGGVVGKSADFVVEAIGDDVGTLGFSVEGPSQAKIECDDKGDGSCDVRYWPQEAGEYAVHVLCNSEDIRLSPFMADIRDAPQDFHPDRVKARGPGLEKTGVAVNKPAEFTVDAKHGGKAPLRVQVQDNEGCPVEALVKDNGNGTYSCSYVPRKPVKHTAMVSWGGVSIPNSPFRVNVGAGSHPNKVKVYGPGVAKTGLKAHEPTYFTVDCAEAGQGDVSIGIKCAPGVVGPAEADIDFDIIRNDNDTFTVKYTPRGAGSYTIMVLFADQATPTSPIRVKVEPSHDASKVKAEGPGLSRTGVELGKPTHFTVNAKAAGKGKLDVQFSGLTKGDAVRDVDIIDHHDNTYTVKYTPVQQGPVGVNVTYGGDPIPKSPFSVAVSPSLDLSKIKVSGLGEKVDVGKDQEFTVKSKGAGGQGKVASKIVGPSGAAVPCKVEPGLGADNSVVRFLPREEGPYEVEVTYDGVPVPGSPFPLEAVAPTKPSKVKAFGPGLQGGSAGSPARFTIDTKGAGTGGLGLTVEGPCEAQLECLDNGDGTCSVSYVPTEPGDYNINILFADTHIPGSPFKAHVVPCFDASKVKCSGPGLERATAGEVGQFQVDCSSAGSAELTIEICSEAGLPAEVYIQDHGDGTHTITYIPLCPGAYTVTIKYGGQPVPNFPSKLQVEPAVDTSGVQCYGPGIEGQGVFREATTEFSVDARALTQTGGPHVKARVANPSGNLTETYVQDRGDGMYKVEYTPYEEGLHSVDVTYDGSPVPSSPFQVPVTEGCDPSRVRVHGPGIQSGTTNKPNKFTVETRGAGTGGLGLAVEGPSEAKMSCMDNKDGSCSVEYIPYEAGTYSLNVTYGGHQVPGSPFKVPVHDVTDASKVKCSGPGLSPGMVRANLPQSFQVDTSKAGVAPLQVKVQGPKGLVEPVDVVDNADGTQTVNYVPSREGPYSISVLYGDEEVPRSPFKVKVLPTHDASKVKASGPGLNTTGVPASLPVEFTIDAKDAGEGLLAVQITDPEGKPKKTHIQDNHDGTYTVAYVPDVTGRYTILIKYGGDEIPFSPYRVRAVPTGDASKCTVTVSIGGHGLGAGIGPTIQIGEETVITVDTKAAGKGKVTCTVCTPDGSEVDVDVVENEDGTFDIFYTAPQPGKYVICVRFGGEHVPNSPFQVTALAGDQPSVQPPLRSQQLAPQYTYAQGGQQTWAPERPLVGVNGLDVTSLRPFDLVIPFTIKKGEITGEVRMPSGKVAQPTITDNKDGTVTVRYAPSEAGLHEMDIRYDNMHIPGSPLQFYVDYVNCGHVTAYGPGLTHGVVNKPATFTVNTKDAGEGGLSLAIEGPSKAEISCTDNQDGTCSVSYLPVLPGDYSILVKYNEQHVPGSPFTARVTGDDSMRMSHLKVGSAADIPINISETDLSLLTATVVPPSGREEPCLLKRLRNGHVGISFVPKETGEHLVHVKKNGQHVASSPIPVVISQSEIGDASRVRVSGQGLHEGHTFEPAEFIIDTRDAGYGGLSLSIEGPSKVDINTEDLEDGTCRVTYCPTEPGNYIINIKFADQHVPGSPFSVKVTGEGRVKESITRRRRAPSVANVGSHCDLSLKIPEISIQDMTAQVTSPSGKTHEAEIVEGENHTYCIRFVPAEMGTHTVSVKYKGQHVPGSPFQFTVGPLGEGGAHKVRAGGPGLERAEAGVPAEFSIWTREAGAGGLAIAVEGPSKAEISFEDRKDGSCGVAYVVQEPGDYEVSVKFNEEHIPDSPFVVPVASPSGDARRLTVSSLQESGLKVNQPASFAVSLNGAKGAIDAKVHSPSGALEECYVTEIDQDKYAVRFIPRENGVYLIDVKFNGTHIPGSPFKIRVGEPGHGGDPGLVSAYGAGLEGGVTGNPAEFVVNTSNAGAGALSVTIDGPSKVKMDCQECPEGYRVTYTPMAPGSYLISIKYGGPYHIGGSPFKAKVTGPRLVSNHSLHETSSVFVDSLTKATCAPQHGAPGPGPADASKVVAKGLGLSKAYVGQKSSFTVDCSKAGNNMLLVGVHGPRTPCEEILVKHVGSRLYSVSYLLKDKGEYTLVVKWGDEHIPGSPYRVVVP
TUBB6, Q9BUF5, UniProt Q9BUF5, whole entry: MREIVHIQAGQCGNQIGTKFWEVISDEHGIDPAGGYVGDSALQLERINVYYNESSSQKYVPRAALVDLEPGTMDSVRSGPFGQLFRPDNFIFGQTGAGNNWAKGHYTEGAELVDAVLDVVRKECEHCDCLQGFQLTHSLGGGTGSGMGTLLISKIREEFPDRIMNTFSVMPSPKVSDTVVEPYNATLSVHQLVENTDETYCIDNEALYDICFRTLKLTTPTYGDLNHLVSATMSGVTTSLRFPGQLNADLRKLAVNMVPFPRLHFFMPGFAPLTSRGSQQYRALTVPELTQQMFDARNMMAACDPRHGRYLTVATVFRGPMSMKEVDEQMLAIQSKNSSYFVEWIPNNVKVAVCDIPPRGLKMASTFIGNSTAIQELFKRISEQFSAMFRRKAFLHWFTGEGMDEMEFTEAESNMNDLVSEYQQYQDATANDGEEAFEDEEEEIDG
CFDP1, Q9UEE9, UniProt Q9UEE9, whole entry: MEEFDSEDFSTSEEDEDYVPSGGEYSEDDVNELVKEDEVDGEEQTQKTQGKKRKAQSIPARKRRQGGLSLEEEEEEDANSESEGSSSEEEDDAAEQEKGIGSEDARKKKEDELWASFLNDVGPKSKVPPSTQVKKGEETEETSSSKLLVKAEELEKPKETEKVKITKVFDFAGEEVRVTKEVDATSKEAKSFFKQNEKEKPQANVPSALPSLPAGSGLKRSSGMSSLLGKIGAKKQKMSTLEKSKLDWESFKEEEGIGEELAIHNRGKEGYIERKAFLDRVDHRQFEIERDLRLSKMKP
FEN1, P39748, UniProt P39748, whole entry: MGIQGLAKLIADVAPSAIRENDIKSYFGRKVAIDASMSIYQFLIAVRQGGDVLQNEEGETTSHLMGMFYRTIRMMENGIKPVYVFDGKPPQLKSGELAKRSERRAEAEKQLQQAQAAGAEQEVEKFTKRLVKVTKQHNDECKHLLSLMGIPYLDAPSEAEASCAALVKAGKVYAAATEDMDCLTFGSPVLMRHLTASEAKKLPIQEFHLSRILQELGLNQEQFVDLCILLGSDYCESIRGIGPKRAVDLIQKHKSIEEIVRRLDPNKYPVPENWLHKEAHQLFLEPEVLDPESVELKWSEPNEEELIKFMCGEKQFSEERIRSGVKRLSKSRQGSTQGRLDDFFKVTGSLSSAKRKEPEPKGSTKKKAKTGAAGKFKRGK
INTS11, Q5TA45, UniProt Q5TA45, whole entry: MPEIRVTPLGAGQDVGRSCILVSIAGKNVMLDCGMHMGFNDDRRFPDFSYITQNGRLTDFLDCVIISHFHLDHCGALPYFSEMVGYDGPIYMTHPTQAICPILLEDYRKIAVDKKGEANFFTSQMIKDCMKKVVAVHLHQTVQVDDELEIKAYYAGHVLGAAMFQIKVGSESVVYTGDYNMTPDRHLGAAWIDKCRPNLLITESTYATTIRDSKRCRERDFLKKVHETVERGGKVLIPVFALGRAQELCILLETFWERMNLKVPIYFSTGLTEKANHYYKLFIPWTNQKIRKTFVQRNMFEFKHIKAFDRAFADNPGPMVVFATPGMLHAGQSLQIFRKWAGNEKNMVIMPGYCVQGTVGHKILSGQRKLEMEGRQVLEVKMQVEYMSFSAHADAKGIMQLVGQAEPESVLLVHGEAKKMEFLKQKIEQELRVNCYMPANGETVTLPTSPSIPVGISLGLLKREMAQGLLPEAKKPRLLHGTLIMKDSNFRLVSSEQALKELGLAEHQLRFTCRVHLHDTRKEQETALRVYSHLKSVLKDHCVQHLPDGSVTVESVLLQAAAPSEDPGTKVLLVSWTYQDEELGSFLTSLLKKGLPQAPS
NDUFB5, O43674, UniProt O43674, whole entry: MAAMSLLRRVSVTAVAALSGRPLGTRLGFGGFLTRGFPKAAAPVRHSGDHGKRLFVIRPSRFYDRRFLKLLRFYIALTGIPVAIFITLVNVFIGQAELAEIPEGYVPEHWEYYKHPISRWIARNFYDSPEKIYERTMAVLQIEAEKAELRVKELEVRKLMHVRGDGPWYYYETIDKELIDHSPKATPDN
RAD18, Q9NS91, UniProt Q9NS91, whole entry: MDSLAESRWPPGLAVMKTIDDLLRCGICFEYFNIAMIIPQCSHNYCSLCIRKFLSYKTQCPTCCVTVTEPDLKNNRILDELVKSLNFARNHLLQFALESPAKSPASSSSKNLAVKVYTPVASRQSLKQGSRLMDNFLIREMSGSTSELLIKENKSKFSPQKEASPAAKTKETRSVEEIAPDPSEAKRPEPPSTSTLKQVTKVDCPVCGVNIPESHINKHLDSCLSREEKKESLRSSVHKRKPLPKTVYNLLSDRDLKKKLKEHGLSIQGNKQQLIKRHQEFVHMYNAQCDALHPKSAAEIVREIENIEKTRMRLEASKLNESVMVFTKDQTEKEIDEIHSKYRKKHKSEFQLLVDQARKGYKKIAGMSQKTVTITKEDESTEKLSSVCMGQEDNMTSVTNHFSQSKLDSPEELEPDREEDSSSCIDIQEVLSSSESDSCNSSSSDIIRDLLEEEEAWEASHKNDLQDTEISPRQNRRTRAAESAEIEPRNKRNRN
VPS4B, O75351, UniProt O75351, whole entry: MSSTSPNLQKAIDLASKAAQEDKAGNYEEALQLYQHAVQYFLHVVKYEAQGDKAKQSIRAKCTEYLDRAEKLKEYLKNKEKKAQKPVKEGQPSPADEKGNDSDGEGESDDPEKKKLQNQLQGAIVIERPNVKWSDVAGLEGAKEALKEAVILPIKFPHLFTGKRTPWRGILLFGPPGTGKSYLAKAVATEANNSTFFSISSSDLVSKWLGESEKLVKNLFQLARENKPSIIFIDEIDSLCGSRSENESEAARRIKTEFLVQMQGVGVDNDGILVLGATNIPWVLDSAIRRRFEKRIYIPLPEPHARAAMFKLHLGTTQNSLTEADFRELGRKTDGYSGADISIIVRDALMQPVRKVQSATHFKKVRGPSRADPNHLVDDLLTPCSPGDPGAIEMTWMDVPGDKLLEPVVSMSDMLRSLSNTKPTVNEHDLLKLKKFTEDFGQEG

Columns and labels:
Experiment in all cases: PRISMA enrichment of interactor (LFQ) in peptide spot vs all other peptide spots (log2 fold change); higher = stronger / more specific binding of the interactor to the peptide
[1] = target: AFF3, P51826
Experimental: (§1)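 PRISMA: 15-aa overlapping tiles (offset 8 aa) of 60 microproteins, plus SOS1/GLUT1 control peptides, were spot-synthesized on cellulose membranes in triplicate. Membranes were incubated with benzonase-treated HEK293T lysate, and bound proteins were identified by LC-MS/MS with LFQ. Enrichment is the log2 fold change of each protein in one spot versus all other spots. Only interactors passing the significance cutoff are listed.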

[2] = target: ALDH7A1, P49419
Experimental: as §1

[3] = target: CAPZA1, P52907
Experimental: as §1

[4] = target: CHAMP1, Q96JM3
Experimental: as §1

[5] = target: CIP2A, Q8TCG1
Experimental: as §1

[6] = target: ECT2, Q9H8V3
Experimental: as §1

[7] = target: EXOSC4, Q9NPD3
Experimental: as §1

[8] = target: GABARAPL2, P60520
Experimental: as §1

[9] = target: GTPBP4, Q9BZE4
Experimental: as §1

[10] = target: HIST1H1E, P10412
Experimental: as §1

[11] = target: KIFC1, Q9BW19
Experimental: as §1

[12] = target: MED12, Q93074
Experimental: as §1

[13] = target: MOV10, Q9HCE1
Experimental: as §1

[14] = target: PSAT1, Q9Y617
Experimental: as §1

[15] = target: RALGAPA1, Q6GYQ0
Experimental: as §1

[16] = target: REXO4, Q9GZR2
Experimental: as §1

[17] = target: SCRIB
Experimental: as §1

[18] = target: VAPB, O95292
Experimental: as §1

[19] = target: ZNF622, Q969S3
Experimental: as §1

[20] = target: AFG3L2, Q9Y4W6
Experimental: as §1

[21] = target: AKAP1, Q92667
Experimental: as §1

[22] = target: ANXA11, P50995
Experimental: as §1

[23] = target: CLINT1, Q14677
Experimental: as §1

[24] = target: EEF1D, P29692
Experimental: as §1

[25] = target: EIF2B2, P49770
Experimental: as §1

[26] = target: FLNA, P21333
Experimental: as §1

[27] = target: MON2, Q7Z3U7
Experimental: as §1

[28] = target: MRPS22, P82650
Experimental: as §1

[29] = target: MRPS28, Q9Y2Q9
Experimental: as §1

[30] = target: NAP1L1, P55209
Experimental: as §1

[31] = target: NUP153, P49790
Experimental: as §1

[32] = target: PDAP1, Q13442
Experimental: as §1

[33] = target: PRKCSH, P14314
Experimental: as §1

[34] = target: PYCR3, Q53H96
Experimental: as §1

[35] = target: RBM8A, Q9Y5S9
Experimental: as §1

[36] = target: SNRNP40, Q96DI7
Experimental: as §1

[37] = target: TBCD, Q9BTW9
Experimental: as §1

[38] = target: TUBB6, Q9BUF5
Experimental: as §1

[39] = target: AGFG1, P52594
Experimental: as §1

[40] = target: ANP32A, P39687
Experimental: as §1

[41] = target: ANP32B, Q92688
Experimental: as §1

[42] = target: ARL2, P36404
Experimental: as §1

[43] = target: CFDP1, Q9UEE9
Experimental: as §1

[44] = target: DUSP3, P51452
Experimental: as §1

[45] = target: ECD, O95905
Experimental: as §1

[46] = target: EIF2S2, P20042
Experimental: as §1

[47] = target: FEN1, P39748
Experimental: as §1

[48] = target: LRRFIP1, Q32MZ4
Experimental: as §1

[49] = target: NUCKS1, Q9H1E3
Experimental: as §1

[50] = target: RO60, P10155
Experimental: as §1

[51] = target: SYAP1, Q96A49
Experimental: as §1

[52] = target: USP24, Q9UPU5
Experimental: as §1

[53] = target: VPS25, Q9BRG1
Experimental: as §1

[54] = target: C1QBP, Q07021
Experimental: as §1

[55] = target: CAPZB, P47756
Experimental: as §1

[56] = target: CKAP2L, Q8IYA6
Experimental: as §1

[57] = target: DDX28, Q9NUL7
Experimental: as §1

[58] = target: DPM3, Q9P2X0
Experimental: as §1

[59] = target: EIF3J, O75822
Experimental: as §1

[60] = target: FASTKD5, Q7L8L6
Experimental: as §1

[61] = target: INTS11, Q5TA45
Experimental: as §1

[62] = target: NDUFB5, O43674
Experimental: as §1

[63] = target: NSFL1C, Q9UNZ2
Experimental: as §1

[64] = target: NTMT1, Q9BV86
Experimental: as §1

[65] = target: RAD18, Q9NS91
Experimental: as §1

[66] = target: RAE1, P78406
Experimental: as §1

[67] = target: SH3BGRL3, Q9H299
Experimental: as §1

[68] = target: STMN1, P16949
Experimental: as §1

[69] = target: TXLNG, Q9NUQ3
Experimental: as §1

[70] = target: TXNDC5, Q8NBS9
Experimental: as §1

[71] = target: USP10, Q14694
Experimental: as §1

[72] = target: VPS4B, O75351
Experimental: as §1

[73] = target: XRN1, Q8IZH2
Experimental: as §1

[74] = target: ZNF687, Q8N1G0
Experimental: as §1

Binder: RATAAPLRLGGASRR
- PRISMA enrichment of interactor (log2) [1]: 4.28
- PRISMA enrichment of interactor (log2) [2]: 7.12
- PRISMA enrichment of interactor (log2) [3]: 4.73
- PRISMA enrichment of interactor (log2) [4]: 5.1
- PRISMA enrichment of interactor (log2) [5]: 8.13
- PRISMA enrichment of interactor (log2) [6]: 3.77
- PRISMA enrichment of interactor (log2) [7]: 4.69
- PRISMA enrichment of interactor (log2) [8]: 5.31
- PRISMA enrichment of interactor (log2) [9]: 4.98
- PRISMA enrichment of interactor (log2) [10]: 5.45
- PRISMA enrichment of interactor (log2) [11]: 5.52
- PRISMA enrichment of interactor (log2) [12]: 3.92
- PRISMA enrichment of interactor (log2) [13]: 4.75
- PRISMA enrichment of interactor (log2) [14]: 4.13
- PRISMA enrichment of interactor (log2) [15]: 4.92
- PRISMA enrichment of interactor (log2) [16]: 8.12
- PRISMA enrichment of interactor (log2) [17]: 4.4
- PRISMA enrichment of interactor (log2) [18]: 7.24
- PRISMA enrichment of interactor (log2) [19]: 4.99

Binder: AGLEAWRHPSGPART [TUG1]
- PRISMA enrichment of interactor (log2) [20]: 6
- PRISMA enrichment of interactor (log2) [21]: 5.28
- PRISMA enrichment of interactor (log2) [22]: 3.91
- PRISMA enrichment of interactor (log2) [23]: 4.65
- PRISMA enrichment of interactor (log2) [24]: 4.4
- PRISMA enrichment of interactor (log2) [25]: 6.47
- PRISMA enrichment of interactor (log2) [26]: 6.22
- PRISMA enrichment of interactor (log2) [27]: 5.46
- PRISMA enrichment of interactor (log2) [28]: 4.96
- PRISMA enrichment of interactor (log2) [29]: 6.14
- PRISMA enrichment of interactor (log2) [30]: 6.08
- PRISMA enrichment of interactor (log2) [31]: 5.97
- PRISMA enrichment of interactor (log2) [32]: 4.87
- PRISMA enrichment of interactor (log2) [33]: 4.94
- PRISMA enrichment of interactor (log2) [34]: 5.65
- PRISMA enrichment of interactor (log2) [35]: 5.41
- PRISMA enrichment of interactor (log2) [36]: 5.63
- PRISMA enrichment of interactor (log2) [37]: 6.03
- PRISMA enrichment of interactor (log2) [38]: 5.24

Binder: LSRPPHRRTSKKCSS [IFRD1]
- PRISMA enrichment of interactor (log2) [39]: 6.38
- PRISMA enrichment of interactor (log2) [40]: 5.61
- PRISMA enrichment of interactor (log2) [41]: 6.06
- PRISMA enrichment of interactor (log2) [42]: 5.15
- PRISMA enrichment of interactor (log2) [43]: 4.87
- PRISMA enrichment of interactor (log2) [44]: 5.05
- PRISMA enrichment of interactor (log2) [45]: 5.06
- PRISMA enrichment of interactor (log2) [46]: 8.86
- PRISMA enrichment of interactor (log2) [47]: 4.79
- PRISMA enrichment of interactor (log2) [48]: 4.78
- PRISMA enrichment of interactor (log2) [49]: 9.22
- PRISMA enrichment of interactor (log2) [50]: 6.29
- PRISMA enrichment of interactor (log2) [51]: 4.22
- PRISMA enrichment of interactor (log2) [52]: 4.23
- PRISMA enrichment of interactor (log2) [53]: 4.7

Binder: PRRARSAPTAVAAEA
- PRISMA enrichment of interactor (log2) [39]: 5.37
- PRISMA enrichment of interactor (log2) [40]: 5.85
- PRISMA enrichment of interactor (log2) [54]: 7.05
- PRISMA enrichment of interactor (log2) [55]: 6.58
- PRISMA enrichment of interactor (log2) [56]: 6.19
- PRISMA enrichment of interactor (log2) [57]: 5.2
- PRISMA enrichment of interactor (log2) [58]: 4.99
- PRISMA enrichment of interactor (log2) [59]: 4.91
- PRISMA enrichment of interactor (log2) [60]: 7.68
- PRISMA enrichment of interactor (log2) [61]: 5.24
- PRISMA enrichment of interactor (log2) [62]: 4.2
- PRISMA enrichment of interactor (log2) [63]: 4.91
- PRISMA enrichment of interactor (log2) [64]: 4.76
- PRISMA enrichment of interactor (log2) [65]: 4.69
- PRISMA enrichment of interactor (log2) [66]: 5.74
- PRISMA enrichment of interactor (log2) [67]: 3.78
- PRISMA enrichment of interactor (log2) [68]: 8.2
- PRISMA enrichment of interactor (log2) [69]: 5.21
- PRISMA enrichment of interactor (log2) [70]: 4.7
- PRISMA enrichment of interactor (log2) [71]: 4.85
- PRISMA enrichment of interactor (log2) [72]: 4.29
- PRISMA enrichment of interactor (log2) [73]: 5.02
- PRISMA enrichment of interactor (log2) [74]: 4.59
